Assay results: paper PMC10995098
These are yes or no findings as the source states them, for the method shown. In cells and extracts the contact can be indirect. Some entries that bind do so weakly or less than the wild type.

Chains of the proteins cited; added tags and fusions are not shown.
UniProt O95758: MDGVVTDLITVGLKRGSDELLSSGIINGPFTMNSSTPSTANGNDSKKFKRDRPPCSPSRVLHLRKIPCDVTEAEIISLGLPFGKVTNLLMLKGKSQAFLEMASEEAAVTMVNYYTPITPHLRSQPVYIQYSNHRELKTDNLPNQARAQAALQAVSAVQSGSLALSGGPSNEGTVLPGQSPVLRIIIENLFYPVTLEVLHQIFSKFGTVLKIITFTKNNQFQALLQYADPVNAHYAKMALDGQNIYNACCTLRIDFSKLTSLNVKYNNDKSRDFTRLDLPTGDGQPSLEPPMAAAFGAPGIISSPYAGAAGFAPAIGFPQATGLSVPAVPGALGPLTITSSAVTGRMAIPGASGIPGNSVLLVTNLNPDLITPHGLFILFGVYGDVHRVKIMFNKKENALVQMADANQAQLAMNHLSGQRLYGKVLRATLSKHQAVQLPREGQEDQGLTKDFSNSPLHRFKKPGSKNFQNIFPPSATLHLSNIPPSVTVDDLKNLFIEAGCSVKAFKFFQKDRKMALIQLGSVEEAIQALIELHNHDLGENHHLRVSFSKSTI

Target: Regulator of differentiation 1 (ROD1) (human) (UniProt O95758)
Assay: co-IP; cells, bait and precipitating antibody not told; no methods section for the co-IP

binding: binds
B1: SRSF3 (protein, UniProt P84103 1-164)
chain: MHRDSCPLDCKVYVGNLGNNGNKTELERAFGYYGPLRSVWVARNPPGFAFVEFEDPRDAADAVRELDGRTLCGCRVRVELSNGEKRSRNRGPPPSWGRRPRDDYRRRSPPPRRRSPRRRSFSRSRSRSLSRDRRRERSLSRERNHKPSRSFSRSRSRSRSNERK
